{"sequences": {"note": "Protein sequences, listed by entry. Tags and fused reporters are not part of them.", "UniProt Q06142": "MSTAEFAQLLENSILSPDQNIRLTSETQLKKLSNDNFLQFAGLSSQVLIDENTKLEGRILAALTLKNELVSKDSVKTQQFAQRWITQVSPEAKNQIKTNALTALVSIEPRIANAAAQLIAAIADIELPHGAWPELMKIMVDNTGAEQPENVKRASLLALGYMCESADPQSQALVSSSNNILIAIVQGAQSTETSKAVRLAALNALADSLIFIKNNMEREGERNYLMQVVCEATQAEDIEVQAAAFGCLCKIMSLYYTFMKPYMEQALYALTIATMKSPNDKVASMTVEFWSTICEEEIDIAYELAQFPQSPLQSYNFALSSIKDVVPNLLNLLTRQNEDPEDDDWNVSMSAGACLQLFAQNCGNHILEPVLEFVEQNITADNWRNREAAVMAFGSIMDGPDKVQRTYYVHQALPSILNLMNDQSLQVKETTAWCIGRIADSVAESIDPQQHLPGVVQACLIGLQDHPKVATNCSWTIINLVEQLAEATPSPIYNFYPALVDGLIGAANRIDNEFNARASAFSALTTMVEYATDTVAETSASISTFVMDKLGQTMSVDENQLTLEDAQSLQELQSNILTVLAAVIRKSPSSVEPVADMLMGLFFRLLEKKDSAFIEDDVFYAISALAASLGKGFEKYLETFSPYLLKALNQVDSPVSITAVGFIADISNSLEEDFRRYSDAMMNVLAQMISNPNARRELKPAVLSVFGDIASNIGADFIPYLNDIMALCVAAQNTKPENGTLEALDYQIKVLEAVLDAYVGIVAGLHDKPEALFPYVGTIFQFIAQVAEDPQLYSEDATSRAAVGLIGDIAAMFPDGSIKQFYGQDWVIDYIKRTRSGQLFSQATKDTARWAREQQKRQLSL"}, "source": "paper PMC4161973", "binders": {"B1": {"name": "Tsr2, purified recombinant (protein, UniProt Q06672 1-205)", "chain": "MSTQYIDETAFVQAEQGKTNLMFSDEKQQARFELGVSMVIYKWDALDVAVENSWGGPDSAEKRDWITGIVVDLFKNEKVVDAALIEETLLYAMIDEFETNVEDDSALPIAVEVINIYNDCFNLNYNKVEKLYLEWQEKQRTKKSKRVVHIEGDDDEDDEDVEDYDDEDEDEEMDEVVPDLVSSKPEPIVDEDGFELVQPKGRRKH"}}, "key": {"[1]": {"target": "GST-tagged Kap95 (S. cerevisiae) (UniProt Q06142)", "test": "pull-down; GST-importins immobilised on Glutathione Sepharose, incubated with purified 3.4 µM Tsr2 or 4 µM Tsr2:eS26 in PBSKMT with competing E. coli lysates for 1 hr at 4°C; Coomassie Blue staining or Western; both purified"}, "[2]": {"target": "T1, GST-tagged Sxm1 (S. cerevisiae) (UniProt Q04175)", "T1 sequence": "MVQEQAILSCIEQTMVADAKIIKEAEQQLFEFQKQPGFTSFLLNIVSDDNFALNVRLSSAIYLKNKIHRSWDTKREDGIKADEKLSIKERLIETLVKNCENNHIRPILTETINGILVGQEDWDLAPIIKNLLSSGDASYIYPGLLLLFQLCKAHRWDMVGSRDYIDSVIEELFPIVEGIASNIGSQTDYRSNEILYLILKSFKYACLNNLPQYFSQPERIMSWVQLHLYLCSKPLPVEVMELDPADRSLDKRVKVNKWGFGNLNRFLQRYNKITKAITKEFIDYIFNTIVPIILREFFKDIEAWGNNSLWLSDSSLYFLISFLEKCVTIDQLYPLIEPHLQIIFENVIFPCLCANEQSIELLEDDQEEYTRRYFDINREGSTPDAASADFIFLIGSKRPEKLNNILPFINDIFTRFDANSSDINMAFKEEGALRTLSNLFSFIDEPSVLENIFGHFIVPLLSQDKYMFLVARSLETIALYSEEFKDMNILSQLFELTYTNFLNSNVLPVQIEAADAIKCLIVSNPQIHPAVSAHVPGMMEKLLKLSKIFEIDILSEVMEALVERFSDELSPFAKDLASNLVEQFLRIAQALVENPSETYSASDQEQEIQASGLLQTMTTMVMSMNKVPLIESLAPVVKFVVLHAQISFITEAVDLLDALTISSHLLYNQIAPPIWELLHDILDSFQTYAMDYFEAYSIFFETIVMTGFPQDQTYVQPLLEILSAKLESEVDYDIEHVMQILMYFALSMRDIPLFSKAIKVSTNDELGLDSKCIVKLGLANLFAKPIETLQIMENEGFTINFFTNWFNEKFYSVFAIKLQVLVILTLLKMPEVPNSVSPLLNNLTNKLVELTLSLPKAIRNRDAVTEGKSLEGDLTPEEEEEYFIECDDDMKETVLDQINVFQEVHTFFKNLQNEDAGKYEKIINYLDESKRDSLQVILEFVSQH", "test": "pull-down; GST-importins immobilised on Glutathione Sepharose, incubated with purified 3.4 µM Tsr2 or 4 µM Tsr2:eS26 in PBSKMT with competing E. coli lysates for 1 hr at 4°C; Coomassie Blue staining or Western; both purified"}}, "note": "These are yes or no findings as the source states them, for the method shown. For some assays here: Sequences can lack the tags named with a protein."}
{"binder": "B1", "values": [{"measurement": "binding", "setting": "[1]", "result": "no binding (tested: 3.4 µM Tsr2)"}, {"measurement": "binding", "setting": "[2]", "result": "no binding (tested: 3.4 µM Tsr2)"}]}
